Numbered stars: 1 amine (or outer) side, 2 acyl side, 3 side chain; on linkers, the order of the positions; unused ones are H or OH. Bridge positions count the residues as written; N and C are the ends. Square brackets hold non-standard residues; d marks the D form. Peptide text beside a SMILES is read from it. * marks the point of attachment. X4 = CC[C@H](C)[C@@H](N[*:1])[C@@H](O)CC(=O)O[C@@H](C(=O)[C@H](C)C(=O)[*:2])C(C)C; X1 = CC[C@H](C)[C@@H](N[*:1])[C@@H](O)CC(=O)O[C@H](C(=O)[C@H](C)C(=O)[*:2])C(C)C; X3 = CC[C@H](C)[C@H](N[*:1])[C@@H](O)CC(=O)O[C@H](C(=O)[C@H](C)C(=O)[*:2])C(C)C; NMeY = CN[C@@H](Cc1ccc(O)cc1)C(=O)O; aThr = C[C@H](O)[C@H](N)C(=O)O; dNMeL = CN[C@H](CC(C)C)C(=O)O; Isobutyryl = CC(C)C(=O)*; Propionyl = CCC(=O)*
Tested on: Nb2 cells, rat T-cell node lymphoma
Test: Competitive binding with [3H]didemnin B to Nb2 cells
Settings: not given
Procedure: The immunosuppressive assay was performed by measuring competitive binding of tested compounds with [^3 H]didemnin B to Nb2 cells, rat T-cell node lymphoma. See, Russell, D. H., et al., J. Immunology, 1987, 138, 276-284.
^a Competing didemnins incubated with approximately 25 ng of [^3

Row | Compound | Ratio of IC50 of [[3H]didemnin B binding/L1210 growth]
1 | CCC(=O)N(C)[C@H](CC(C)C)C(=O)N[C@@H]1C(=O)N[C@H]([C@@H](C)CC)[C@@H](O)CC(=O)O[C@@H](C(C)C)C(=O)[C@H](C)C(=O)N[C@@H](CC(C)C)C(=O)N2CCC[C@H]2C(=O)N(C)[C@@H](Cc2ccc(OC)cc2)C(=O)O[C@@H]1C [(N-Propionyl)Didemnin A (98), N-propionyl-didemnin A] (Propionyl-[dNMeL]T[X1]LP[NMeY](Me); ester 2-C) | 596
2 | CC[C@H](C)[C@H]1NC(=O)[C@@H](NC(=O)[C@@H](CC(C)C)NC)[C@@H](C)OC(=O)[C@H](Cc2ccc(OC)cc2)N(C)C(=O)[C@@H]2CCCN2C(=O)[C@H](CC(C)C)NC(=O)[C@@H](C)C(=O)[C@H](C(C)C)OC(=O)C[C@@H]1O [Didemnin A (1), Didemnin A, reference compound] (H-[dNMeL]T[X1]LP[NMeY](Me); ester 2-C) | 1000
3 | CC[C@H](C)[C@H]1NC(=O)[C@@H](NC(=O)[C@@H](CC(C)C)N(C)C(=O)[C@@H]2CCCN2C(=O)C(C)O)[C@@H](C)OC(=O)[C@H](Cc2ccc(OC)cc2)N(C)C(=O)[C@@H]2CCCN2C(=O)[C@H](CC(C)C)NC(=O)[C@@H](C)C(=O)[C@H](C(C)C)OC(=O)C[C@@H]1O (stereo partly shown) [Didemnin B (17), Didemnin B, reference compound] | 293
4 | CC[C@H](C)[C@@H]1NC(=O)[C@@H](NC(=O)[C@@H](CC(C)C)N(C)C(C)=O)[C@H](C)OC(=O)[C@H](Cc2ccc(OC)cc2)N(C)C(=O)[C@@H]2CCCN2C(=O)[C@H](CC(C)C)NC(=O)[C@@H](C)C(=O)[C@H](C(C)C)OC(=O)C[C@@H]1O [N-Acetyldidemnin A (54), N-Acetyl didemnin A] (Ac-[dNMeL][aThr][X3]LP[NMeY](Me); ester 2-C) | 190
5 | CC[C@H](C)[C@H]1NC(=O)[C@@H](NC(=O)[C@@H](CC(C)C)N(C)C(=O)[C@@H]2CCCN2C(C)=O)[C@@H](C)OC(=O)[C@H](Cc2ccc(OC)cc2)N(C)C(=O)[C@@H]2CCCN2C(=O)[C@H](CC(C)C)NC(=O)[C@@H](C)C(=O)[C@H](C(C)C)OC(=O)C[C@@H]1O [[Acetyl^9]Didemnin B (103), [Acetyl^9]didemnin B] (Ac-P[dNMeL]T[X1]LP[NMeY](Me); ester 3-C) | 315
6 | CC[C@H](C)[C@H]1NC(=O)[C@@H](NC(=O)[C@@H](CC(C)C)N(C)C(=O)[C@H]2CCCN2C(=O)C(C)C)[C@@H](C)OC(=O)[C@H](Cc2ccc(OC)cc2)N(C)C(=O)[C@@H]2CCCN2C(=O)[C@H](CC(C)C)NC(=O)[C@@H](C)C(=O)[C@H](C(C)C)OC(=O)C[C@@H]1O [[Isobutyryl^9 -D-Pro^8]didemnin B] (Isobutyryl-[dP][dNMeL]T[X1]LP[NMeY](Me); ester 3-C) | 18
7 | CC[C@H](C)[C@H]1NC(=O)[C@@H](NC(=O)[C@@H](CC(C)C)N(C)C(=O)[C@@H]2CCCN2C(=O)C(C)C)[C@@H](C)OC(=O)[C@H](Cc2ccc(OC)cc2)N(C)C(=O)[C@@H]2CCCN2C(=O)[C@H](CC(C)C)NC(=O)[C@@H](C)C(=O)[C@H](C(C)C)OC(=O)C[C@@H]1O [[Isobutyryl^9]didemnin B] (Isobutyryl-P[dNMeL]T[X1]LP[NMeY](Me); ester 3-C) | 485

Tested on: DNA synthesis in Nb2 node lymphoma cells
Test: Inhibition of ongoing DNA synthesis in prolactin-stimulated Nb2 cells
Assay type: cell-based, rat
Settings: not given
Procedure: Also inhibitions of protein and DNA synthesis of several compounds were measured using Nb2 node lymphoma cells which were stimulated by a treatment of cells with prolactin. (ibid.)
^a Nb2 cells were stimulated with prolactin for 24 h, then exposed to
^b 50% Inhibitory concentration, calculated with linear regression

Row | Compound | Ratio, Log IC50 of (DNA/Protein) synthesis
8 | CC[C@H](C)[C@H]1NC(=O)[C@@H](NC(=O)[C@@H](CC(C)C)NC)[C@@H](C)OC(=O)[C@H](Cc2ccc(OC)cc2)N(C)C(=O)[C@@H]2CCCN2C(=O)[C@H](CC(C)C)NC(=O)[C@@H](C)C(=O)[C@H](C(C)C)OC(=O)C[C@@H]1O [Didemnin A (1), Didemnin A, reference compound] (H-[dNMeL]T[X1]LP[NMeY](Me); ester 2-C) | 1.45
9 | CC[C@H](C)[C@H]1NC(=O)[C@@H](NC(=O)[C@@H](CC(C)C)N(C)C(=O)[C@@H]2CCCN2C(=O)C(C)O)[C@@H](C)OC(=O)[C@H](Cc2ccc(OC)cc2)N(C)C(=O)[C@@H]2CCCN2C(=O)[C@H](CC(C)C)NC(=O)[C@@H](C)C(=O)[C@H](C(C)C)OC(=O)C[C@@H]1O (stereo partly shown) [Didemnin B (17), Didemnin B, reference compound] | 0.31
10 | CC[C@H](C)[C@H]1NC(=O)[C@@H](NC(=O)[C@@H](CC(C)C)N(C)C(=O)[C@@H]2CCCN2C(=O)[C@H](C)O)[C@@H](C)OC(=O)[C@H](Cc2ccc(O)cc2)NC(=O)[C@@H]2CCCN2C(=O)[C@H](CC(C)C)NC(=O)[C@@H](C)C(=O)[C@H](C(C)C)OC(=O)C[C@@H]1O [Didemnin N (13), Didemnin N] | -0.70
11 | CC[C@H](C)[C@H]1NC(=O)[C@@H](NC(=O)[C@@H](CC(C)C)NC)[C@@H](C)OC(=O)[C@H](Cc2ccc(OC)cc2)N(C)C(=O)[C@@H]2CCCN2C(=O)[C@H](CC(C)C)NC(=O)[C@@H](C)C(=O)[C@@H](C(C)C)OC(=O)C[C@@H]1O [Epididemnin A (15), Epididemnin A] (H-[dNMeL]T[X4]LP[NMeY](Me); ester 2-C) | 3
12 | CC[C@H](C)[C@@H]1NC(=O)[C@@H](NC(=O)[C@@H](CC(C)C)N(C)C(C)=O)[C@H](C)OC(=O)[C@H](Cc2ccc(OC)cc2)N(C)C(=O)[C@@H]2CCCN2C(=O)[C@H](CC(C)C)NC(=O)[C@@H](C)C(=O)[C@H](C(C)C)OC(=O)C[C@@H]1O [N-Acetyldidemnin A (54), N-Acetyl didemnin A] (Ac-[dNMeL][aThr][X3]LP[NMeY](Me); ester 2-C) | 0.73
13 | CC[C@H](C)[C@H]1NC(=O)[C@@H](NC(=O)[C@@H](CC(C)C)NC)[C@@H](C)OC(=O)[C@H](Cc2ccc(OC)cc2)N(C)C(=O)[C@@H]2CCCN2C(=O)[C@H](CC(C)C)NC(=O)[C@@H](C)C(=O)[C@H](C(C)C)OC(=O)C[C@@H]1OC(C)=O [O-Acetyldidemnin A (114), O-Acetyldidemnin A] | -0.57

Tested on: not listed separately
Test: general procedure: solution-phase peptide synthesis; EDC (symmetrical anhydride)/DMAP; DCC/HOBt; BOP-Cl; DPPA for cyclization
Settings: coupling step

Row | Compound | step yield
14 | BOC-Isl-(TBDMS)-Hip-Leu-Pro-OTMSE | 78%
15 | N-(benzyloxycarbonyl-D-prolyl) didemnin A | 89%
16 | PhePyruv-Pro Didemnin A | 85%
17 | Z-D-Me-Leu-Thr-OTMSe BOC-D-Pro-MeTyr(Me) | 70%
18 | Z-D-MeLeu-Thr-OTMSe BOC-Isl(T)-Hip-Leu-Pro-D-MeTyr(Me) | 59.3%
19 | [Acetyl^9 ]didemnin B | 88%
20 | [Isobutyryl^9 -D-Pro^8 ]didemnin B | 42%
21 | [Isobutyryl^9 ]didemnin B | 28%
22 | [Propionyl^9 ]didemnin B | 93%

Same assay, conditions: coupling step, silica gel TLC; reversed phase HPLC

Row | Compound | final HPLC purity
23 | PhePyruv-Pro Didemnin A | 96% homogeneity

Same assay, conditions: late stage modification step

Row | Compound | step yield
24 | BOC-Isl(T)-Hip-Leu-Pro-OH | 75%
25 | [D-Pro^5 ] didemnin A | 90%
26 | [D-Pro^8 ]didemnin B | 97%
27 | [D-Thr^1 ] DIDEMNIN A | 85%
28 | [Hexahydro-N-MePhe^5 ]didemnin A | 31%
29 | [Hexahydro-N-MePhe^5 ]didemnin B | 32%
30 | [HexahydroMe2 Tyr^5 ]didemnin A | 34%
31 | [HexahydroMe2 Tyr^5 ]didemnin B | 19.6%
32 | [L-Ala^8 ]didemnin B | 97%

Same assay, conditions: late stage modification step, conversion

Row | Compound | step yield
33 | [H2 (2S,3S,4S)Hip^2 ]didemnin B | 47% conversion

Same assay, conditions: late stage modification step, silica gel TLC; reversed phase HPLC

Row | Compound | crude purity (method not given)
34 | [D-Thr^1 ] DIDEMNIN A | more than 92% pure
